“And” between values parts separate entries of the source, which are not always exact repeats. Identical values can stand only once. Screen size: about 350,000 compounds; about 6,000 (1.7%) were called active. The shares of active, inactive and inconclusive entries below differ from those in the screen. No stated cut-off is given here; in the data, active means CPE inhibition above about 20% (passing the limit was not always enough); inconclusive means no clear call, values can overlap the other calls; tested in BHK-21 cells.
Test: protection of cells from dengue 2 killing – plate reader, single concentration, primary screen (AID 651640);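 further: 0% = median of neutral control wells and 100% = median of positive control wells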
Settings: DENV2-infected cells, cytopathic effect rescue, at 9.99 µM, active compounds read high

Compound	CPE inhibition
O=C(Nc1ccc(Br)cc1)c1ccc(-n2cnnn2)cc1	inconclusive: 31.7%
C[C@H]1CCCCO[C@H](CN(C)Cc2ccc(C(=O)O)cc2)[C@@H](C)CN([C@@H](C)CO)C(=O)c2cc(NS(=O)(=O)c3ccccc3)ccc2O1	inconclusive: 21.1%
Cc1cccc(-c2ccc([C@@H]3[C@H](CO)N4CCCCN(S(=O)(=O)c5cccc(C)c5)C[C@@H]34)cc2)c1	active: 23.3%
COc1ccc(N2CCN(C(=O)COC(=O)[C@@H](NC(=O)c3c(F)cccc3F)C(C)C)CC2)cc1	inconclusive: 22.8%
CC(C)NC(=O)Nc1ccc2c(c1)CC(=O)N([C@@H](C)CO)C[C@@H](C)[C@H](CN(C)C(=O)NC(C)C)O2	inconclusive: 24.8%
O=C(c1ccc2c(c1)OCO2)C1CCCN(C(=O)c2cnn(Cc3ccccc3)c2)C1 (stereo not drawn)	inconclusive: 23.5%
Cc1cnc(NC(=O)C2=C(O)c3ccccc3S(=O)(=O)N2C)s1	inconclusive: 30%
c1cc(-c2ccsc2)n2ccnc2c1	inconclusive: 65.1%
CCCc1nnc(-c2ccc(OC)cc2)o1	inactive: 2.79%
COc1cc(OC)c(NC2=CC(=O)C(=O)c3ccccc32)cc1Cl	inconclusive: 33%
Cc1cccc(OCCOC(=O)c2ccc(F)c(S(=O)(=O)N3CCOCC3)c2)c1	inconclusive: 27.8%
O=C(C[C@@H]1C[C@H]2c3cc(NC(=O)Nc4ccc(C(F)(F)F)cc4)ccc3O[C@H]2[C@@H](CO)O1)NCCc1ccccc1	inactive: -2.08%
CO[C@@H]1CN(C)C(=O)c2ccc(NC(C)=O)cc2OC[C@H](C)N(C(=O)Cc2cccnc2)C[C@H]1C	inactive: -0.935%
Cc1nc(C#N)c(N/N=C/c2cccc(Cl)c2)o1	inconclusive: 34.9%
CO[C@H]1CN(C)C(=O)c2cc(NC(=O)NC(C)C)ccc2OC[C@@H](C)N(C)C[C@H]1C	inactive: 4.66%
C/C=C/c1ccc2c(c1)[C@@H]1[C@@H](CCN1S(=O)(=O)c1ccccc1C)[C@H](CO)N2	inactive: 12.1%
Cc1cc2oc(=O)cc(Cn3ccnc3)c2cc1Cl	active: 26%
CN1C(C)(C)c2ccccc2OS1(=O)=O	active: 25%
C[C@H](CO)N1C[C@H](C)[C@@H](CN(C)C(=O)Nc2cccc3ccccc23)OCCCC[C@H](C)Oc2ccc(NS(=O)(=O)c3ccccc3)cc2C1=O	inconclusive: 76.7%
C[C@H]1CCCCO[C@H](CN(C)S(=O)(=O)c2ccccc2)[C@@H](C)CN([C@@H](C)CO)C(=O)c2cc(NC(=O)CCCN(C)C)ccc2O1	active: 41.3%
CCCC(=O)Nc1ccc2c(c1)C(=O)N(C)C[C@H](OC)[C@@H](C)CN(C(=O)C1CCCC1)[C@H](C)CO2	active: 34.6%
Cc1ccc(S(=O)(=O)N2[C@@H](c3ccccc3F)C(C(=O)O)=CC[C@H]2c2ccc(C(C)C)cc2)cc1	inactive: -6%
O=C(NCC[C@@H]1CC[C@H](NS(=O)(=O)Cc2ccccc2)[C@H](CO)O1)C1CCOCC1	inconclusive: 40.6%

Compound	CPE inhibition
CC1CCCCN1C(=O)c1ccc(OC2CCN(S(=O)(=O)N(C)C)CC2)cc1 (stereo not drawn)	inconclusive: 26.7%
O=C(CSC1=NCCN1)Nc1ccccc1[N+](=O)[O-]	inactive: -2.93%
C[C@@H]1CN([C@H](C)CO)C(=O)c2cccc(NC(=O)Nc3ccc(C(F)(F)F)cc3)c2O[C@H]1CN(C)S(=O)(=O)c1cccs1	inactive: 4.63% and inactive: 4.08%
C[C@H]1CN([C@@H](C)CO)C(=O)c2cc(NC(=O)CCN3CCOCC3)ccc2O[C@H]1CN(C)S(C)(=O)=O	inactive: 0.185%
Cc1ccc(S(=O)(=O)/N=C(\c2ccccc2)N(C)S(=O)(=O)c2ccccc2)cc1	inconclusive: 29.6%
Cc1nnc(SCC(=O)Nc2nnc(-c3ccccc3)o2)s1	inconclusive: 61.9%
CCCNC(=O)N1CC2(C1)CN(Cc1cccc(F)c1)[C@@H](CO)c1[nH]c3cc(OC)ccc3c12	active: 136%
O=C(C[C@@H]1CC[C@@H]2[C@H](COC[C@H](O)CN2C(=O)c2ccc3c(c2)OCO3)O1)NCCN1CCCC1	active: 30.5%
C[C@@H]1CN([C@@H](C)CO)C(=O)c2cccc(NC(=O)C3CC3)c2O[C@@H]1CN(C)Cc1ccc(C(=O)Nc2ccccc2N)cc1	inactive: -5.06%
O=C(Nc1ccc(Br)cc1)Nn1cnnc1	inconclusive: 25.1%
COC(=O)C1=C2CC[C@H](CO)NC(=O)N[C@H](Cc3ccccc3)C(=O)NCc3cn(nn3)C[C@@H](Cc3ccccc3)NC(=O)c3oc(c(C(=O)OC)c3C(=O)OC)CC[C@H](CO)NC(=O)N[C@H](Cc3ccccc3)C(=O)NCc3cn(nn3)C[C@@H](Cc3ccccc3)NC(=O)C(=C1C(=O)OC)O2	inconclusive: 40.2%
COc1ccc2c3c(n(C)c2c1)[C@H](CO)N(C(=O)CN1CCOCC1)CC31CN(C(=O)Nc2cccc(F)c2)C1	inconclusive: 26.4%
C[C@]12c3[nH]c4ccc(Cl)cc4c3CCN1C(=O)[C@@H](CC(=O)NCC13CC4CC(CC(C4)C1)C3)C[C@@H]2C(=O)N1CCCCC1	inconclusive: 33.6%
COc1ccc(-c2nnc3sc(C(C)N4C(=O)c5ccccc5C4=O)nn23)cc1 (stereo not drawn)	inactive: 7.6%
C[C@@H]1CN([C@H](C)CO)C(=O)CCCn2nncc2CO[C@@H]1CN(C)Cc1ccc(Cl)c(Cl)c1	inconclusive: 23.2%
CC(C)NC(=O)Nc1ccc2c(c1)C(=O)N(C)[C@@H]1CC[C@@H](CC(=O)NCC3CCCCC3)O[C@@H]1CO2	inconclusive: 21.5%
COc1ccc2c3c([nH]c2c1)[C@H](CO)N(C(=O)c1cnccn1)CC31CN(S(C)(=O)=O)C1	inactive: 17.3%
O=C(CSc1nnc2sc3ccccc3n12)NCc1ccc2c(c1)OCO2	inconclusive: 25.3%
COc1ccc(NC(=O)N[C@H]2CC[C@@H](CCNC(=O)Cc3ccncc3)O[C@@H]2CO)cc1	inactive: 10.2%
CCOc1ccc(OCC(=O)NCc2n[nH]c(=O)c3ccccc23)cc1	inconclusive: 23.7%
O=C(O)CCN(Cc1ccccc1)S(=O)(=O)c1ccccc1Cl	inactive: -2.55%
CC(C)(C)C(=O)C1=C(O)C(=O)N(Cc2ccccc2)C1c1ccccc1F (stereo not drawn)	inconclusive: 44.3%
COCC#Cc1cnc2c(c1)C(=O)N([C@H](C)CO)C[C@H](C)[C@@H](CN(C)C(=O)Nc1cc(F)ccc1F)O2	inconclusive: 25.6%

Compound	CPE inhibition
O=C(CN1CCCC1c1cccs1)N1CCN(S(=O)(=O)c2cccc(F)c2)CC1 (stereo not drawn)	inconclusive: 43.9%
CCN(CC(=O)Nc1ccc(NC(C)=O)cc1)CC(=O)Nc1cccc2ccccc12	inconclusive: 22.1%
Cc1ccc(NC(=S)N2CCC(NC(=O)c3ccc(F)cc3)CC2)cc1	inconclusive: 21.6%
CO[C@@H]1CN(C)C(=O)c2ccc(NC(=O)Nc3cc(F)ccc3F)cc2OC[C@@H](C)N(C(=O)c2cnccn2)C[C@@H]1C	inactive: -1.61%
CO[C@H]1CN(C)C(=O)c2ccc(NC(=O)NC(C)C)cc2OC[C@H](C)N(Cc2ccc(-c3ccccn3)cc2)C[C@H]1C	active: 68.2%
CCCC(=O)Nc1ccc2c(c1)OC[C@@H](C)N(C(=O)CN1CCOCC1)C[C@@H](C)[C@H](OC)CN(C)C2=O	active: 21.2%
CN1C(=O)c2cc(NC(=O)c3ccccc3)ccc2OC[C@H]2O[C@@H](CC(=O)NC3CCCC3)CC[C@H]21	inconclusive: 80.6%
COc1cccc(S(=O)(=O)N2CCCCN3[C@H](CO)[C@@H](c4ccc(C#CC5CC5)cc4)[C@H]3C2)c1	inactive: -34%
CC(=O)NC(CC(=O)Nc1ccc2c(c1)OCCO2)c1ccccc1 (stereo not drawn)	inconclusive: 64.3%
COc1cc(C=C2CN(C)C(=O)C2=O)ccc1O	inactive: -2.85%
Cn1cccc1C(=O)OCC(=O)c1c[nH]c2ccccc12	inconclusive: 65.9%
CCOC1=C2CN(S(=O)(=O)c3ccc(C)cc3)[C@@H](c3ccccc3)C[C@H]2[C@H]2C(=O)N(c3ccccc3)C(=O)[C@H]2C1	inconclusive: 44.2%
O=C(NC1CCCC1)[C@H]1[C@H](CO)[C@H]2Cn3c(ccc(C4=CCCC4)c3=O)[C@@H]1N2C(=O)c1ccccc1	inactive: -5.47%
Cc1cccc(C(=O)O)c1[N+](=O)[O-]	active: 29.4%
CCc1ccc(C(=O)NNC(=O)c2cccc(N3C(=O)CCC3=O)c2)cc1	inconclusive: 46.8%
CN1C(=O)c2cc(NC(=O)c3cnccn3)ccc2OC[C@@H]2O[C@@H](CC(=O)N[C@H]3CCN(Cc4ccccc4)C3)CC[C@H]21	inconclusive: 84.6%
COc1cccc(=O)c2c(C)n(CC(=O)c3ccccc3)c(C)c12	inactive: 0.854%
COCCNC(=O)[C@H]1[C@H](CO)[C@H]2Cn3c(ccc(-c4ccccc4F)c3=O)[C@@H]1N2S(C)(=O)=O	inconclusive: 50.3%
COc1ccc(S(=O)(=O)Nc2ccc3c(c2)C(=O)N([C@H](C)CO)C[C@H](C)[C@H](CN(C)S(C)(=O)=O)OCCCC[C@@H](C)O3)cc1	active: 20.3%
C[C@H]1CN([C@@H](C)CO)C(=O)c2cc(NC(=O)Nc3cccc4ccccc34)ccc2O[C@H]1CN(C)C(=O)Nc1cccc2ccccc12	inconclusive: 41.4%
C[C@@H]1CN([C@H](C)CO)C(=O)Cc2cc(NS(C)(=O)=O)ccc2O[C@H]1CN(C)S(=O)(=O)c1cccs1	inactive: 2.78%
CC(=O)Nc1nc(=O)c2ccccc2s1	inactive: -5.14%

From PubChem BioAssay AID651640 (Broad Institute, 2012)
